No end group written: not given here.
Assay: general procedure: peptide synthesis; chlorotrityl chloride resin
Conditions: whole synthesis

## RWRRKIEN
  crude mass: 0.65 g
Scale of the general procedure 700 mg resin
  crude yield: 92.0%
